# From the supplement of paper PMC3334620
# Whole data set: some 33,000 sequences, median “E-score (-0.5 to 0.5)” near -0.015, cut for the highest 2% near 0.3. The list shows a part of the results.
# Biological target: T1, Abf1 (UniProt P14164)
# T1 sequence: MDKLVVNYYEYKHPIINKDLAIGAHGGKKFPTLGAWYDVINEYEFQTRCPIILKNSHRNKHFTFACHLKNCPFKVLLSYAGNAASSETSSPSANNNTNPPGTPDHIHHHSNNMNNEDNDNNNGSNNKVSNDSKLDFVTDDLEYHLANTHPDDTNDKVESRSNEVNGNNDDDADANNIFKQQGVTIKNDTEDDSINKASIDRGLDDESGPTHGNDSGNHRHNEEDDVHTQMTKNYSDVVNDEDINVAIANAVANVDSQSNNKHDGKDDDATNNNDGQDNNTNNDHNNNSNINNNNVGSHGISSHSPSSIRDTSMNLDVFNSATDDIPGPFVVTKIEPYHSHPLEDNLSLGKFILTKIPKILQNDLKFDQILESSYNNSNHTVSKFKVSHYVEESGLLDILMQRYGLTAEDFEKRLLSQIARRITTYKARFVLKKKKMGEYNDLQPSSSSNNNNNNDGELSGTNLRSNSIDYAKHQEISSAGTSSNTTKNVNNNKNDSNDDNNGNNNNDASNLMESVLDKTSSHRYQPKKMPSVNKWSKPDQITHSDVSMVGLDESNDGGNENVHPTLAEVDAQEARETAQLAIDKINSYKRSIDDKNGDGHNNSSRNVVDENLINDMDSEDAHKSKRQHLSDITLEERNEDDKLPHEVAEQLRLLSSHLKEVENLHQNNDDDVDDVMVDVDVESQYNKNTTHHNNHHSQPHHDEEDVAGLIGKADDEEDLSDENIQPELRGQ
# Experiment: PBM E-score (8-mer binding enrichment) (E-score (-0.5 to 0.5)); higher = stronger / more preferred TF binding
# Conditions: protein concentration: 200 nM; construct: GST-full length
# Method in brief: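 Masliner-normalised scans of fluorescent anti-GST signal were the basis for scoring. That signal came from GST-tagged yeast transcription factors applied at about 100-200 nM to double-stranded universal all-10-mer Agilent arrays on fresh or once-stripped slides. Each ungapped eight-base word, pooled with its reverse complement, received an E-score from the Universal PBM Analysis Suite.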
row,Sequence,PBM E-score
1,CTTCTGAA,0.0735
2,ATGCACCC,-0.0372
3,ACATGGAC,0.0355
4,AGCCCACA,-0.0569
5,CGGCATTC,0.00161
6,GGACAAAA,-0.0523
7,GGGGTATA,-0.146
8,CACTCGAC,0.104
9,CTGGGAAG,-0.176
10,AAAGGGCC,-0.198
11,CAAATGTC,0.103
12,TCATTTCA,0.188
13,CTGAGAAC,0.0128
14,ATTGGCGC,-0.269
15,CGGATCTA,0.0817
16,CTCTTACA,0.0135
17,CGGAGCAA,-0.226
18,ATGTAAAC,0.0851
19,ACACGCCA,-0.0721
20,ACTCCCGC,-0.0985
21,AAAGGACT,-0.284
22,GCCCGCAA,-0.165
23,GTTCGCCA,-0.0997
24,ATCATCAT,0.376

row,Sequence,PBM E-score
1,GAATAGGA,-0.00776
2,CATCAAAA,0.0592
3,AAACTAAG,0.207
4,ACAGATAT,0.177
5,ACGTTTCG,0.0198
6,AGCTGTCC,-0.213
7,ACTAAAAC,0.0409
8,TACGAAAA,0.297
9,CGTCACCA,0.258
10,AAACCTGC,-0.168
11,CCCCGACC,-0.261
12,CGGCAACA,-0.122
13,AATAATGC,0.146
14,GGGTGTCA,0.0147
15,TACGCCTA,0.0743
16,AGAGTTTG,-0.101
17,TAGAGCGA,0.121
18,AGCCCAAC,-0.0367
19,CGTCGCAG,0.176
20,ATCGACTC,-0.136
21,AGTCATCA,0.135
22,CAATGATG,0.106
23,CCCGGTGA,0.00135
24,ACGTAACC,-0.0289

# Shown with bars between the fields: part of the list above.
row | Sequence | PBM E-score
10 | AAAGGGCC | -0.198
11 | CAAATGTC | 0.103
12 | TCATTTCA | 0.188
13 | CTGAGAAC | 0.0128
14 | ATTGGCGC | -0.269

# More records.

row,Sequence,PBM E-score
1,GGATGGTA,-0.0893
2,GGACATTA,0.146
3,CATCTTGA,-0.173
4,ACTGACCG,-0.151
5,AACGCATT,-0.0746
6,GGAGATAC,-0.127
7,CTTCCCGA,0.0924
8,CGTGACAA,0.375
9,GGGACGAA,0.0455
10,CAGGGCGA,-0.0668
11,ATCTTGAG,-0.0537
12,CCCCTCCC,-0.41
13,ATGGCCCA,-0.127
14,TAAAAGTA,0.0929
15,AATCAAGA,-0.0686
16,ATGATTAG,0.114
17,ATAGGACG,0.119
18,AGCCACCT,-0.125
19,GGCTACCA,0.00728
20,GATTTCAA,-0.0594
21,TGATAAAA,0.337
22,GCCGTGAC,0.291
23,GCATGCGA,-0.0923
24,GGTTCTGA,-0.0844

row,Sequence,PBM E-score
1,CGTTACGA,0.231
2,GCCGCCTA,-0.309
3,CGTGGGGC,0.114
4,AAGCTAAT,0.0491
5,AGTTATCG,0.223
6,CTGTGTAC,0.14
7,ACCAACAT,0.0929
8,CTATCGAG,0.0966
9,CCGTACTC,0.0951
10,GGTCACCA,0.109
11,CCAGCGAA,-0.164
12,CAGATCCA,0.0629
13,CAGGTGAA,0.0114
14,CCAAAACC,-0.175
15,ACTGTCTG,-0.193
16,AAATAGTA,0.144
17,GTCAACAA,0.0839
18,AGCCAGCC,-0.358
19,CCCGAAAA,-0.0085
20,AGTGTGCC,-0.0277
21,CGGGGGTA,-0.243
22,GCCTGCCA,-0.381
